Construct, isoform or probe ends are uncertain for at least one entry. At least one verdict rests on a figure or table, not on a statement of the authors. Where a protein sequence is shown, tags need not be part of it.
Target: T1, ΔN-Dhr1-WT (Saccharomyces cerevisiae) (UniProt Q04217)
T1 sequence (looked up, limits assumed): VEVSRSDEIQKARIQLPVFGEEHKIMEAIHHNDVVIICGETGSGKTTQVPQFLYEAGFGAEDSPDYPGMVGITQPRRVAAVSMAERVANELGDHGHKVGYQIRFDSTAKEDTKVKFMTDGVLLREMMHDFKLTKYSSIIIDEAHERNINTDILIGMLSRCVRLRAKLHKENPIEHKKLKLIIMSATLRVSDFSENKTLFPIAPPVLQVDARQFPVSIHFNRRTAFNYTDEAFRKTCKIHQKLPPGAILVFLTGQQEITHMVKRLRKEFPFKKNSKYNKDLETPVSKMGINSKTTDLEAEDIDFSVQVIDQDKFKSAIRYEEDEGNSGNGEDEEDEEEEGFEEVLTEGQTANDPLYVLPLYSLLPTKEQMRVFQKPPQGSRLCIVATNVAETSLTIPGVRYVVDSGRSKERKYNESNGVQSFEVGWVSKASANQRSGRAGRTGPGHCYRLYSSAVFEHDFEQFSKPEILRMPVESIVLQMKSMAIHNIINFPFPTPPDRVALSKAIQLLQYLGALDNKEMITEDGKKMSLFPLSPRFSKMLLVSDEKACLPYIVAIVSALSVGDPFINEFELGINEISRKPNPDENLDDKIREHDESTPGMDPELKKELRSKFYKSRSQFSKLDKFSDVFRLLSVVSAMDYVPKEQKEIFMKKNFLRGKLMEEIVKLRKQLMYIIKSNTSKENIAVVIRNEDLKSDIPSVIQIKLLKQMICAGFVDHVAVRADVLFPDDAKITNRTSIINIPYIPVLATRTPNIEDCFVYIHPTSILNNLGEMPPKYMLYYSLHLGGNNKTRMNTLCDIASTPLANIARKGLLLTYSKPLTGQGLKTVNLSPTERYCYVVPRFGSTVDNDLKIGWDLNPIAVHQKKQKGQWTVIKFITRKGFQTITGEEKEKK
Assay: fluorescence polarization
Conditions: 10 mM Mg2+, no significant change vs no nucleotide, 40 mM Tris-HCl pH 8.0, 40 mM KCl, 150 mM NaCl, 2 mM NaOAc, 2 mM DTT, 10 mM MgCl2, 4% glycerol, 0.05% Tween 20, 25 °C, 10 min, 1.25 nM RNA, 0.625 nM-20 µM protein, recombinant protein, protein details: C-terminal His6 (pET21a), label: 5' 6-FAM

UUUUUUUUUUUUUUUUUUUU [U20]
binding result (1 mM ADP): binds | binding result (1 mM AMPPNP): binds
